Reference: PubChem BioAssay AID1159578 (Peter MacCallum Cancer Centre, 2015)

Assay: 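Knock-downs that alter how fast lymphatic endothelial cells migrate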 (primary screen)
System: human lymphatic endothelial cells
Reagents: siRNA pool against human genes, 40 nM
Duration: 48 h after transfection
Detection: 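High-content imaging of dye-stained cells in a scratch assay measures filled wound area and nuclei per well; duplicate means given as ratio to mock and robust z-score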
Direction: migration robust z-score: higher = faster migration into the scratch; nuclei per well: higher = more cells in the well
Active means: 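Pools averaging fewer than 3300 nuclei are never called; remaining pools count as changed when migration robust z lies outside -2 to 2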
Calls: active = migration changed; inactive = no migration change, or too few cells
Here is an unselected part of about 18,000 reagents. In the full data, about 1,030 (5.7%) got an active call. 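Inactive calls also include pools with fewer than 3300 nuclei, whose migration was not assessed.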 Raw values vary from plate to plate and are shown uncorrected. Unmarked entries are inactive. Not all columns of the deposit are shown.

| gene | migration robust z-score | nuclei per well, duplicate mean |
| --- | --- | --- |
| SLC7A3 | 1.06 | 6088 |
| KCNN1 | -0.55 | 5622 |
| PIM2 | -3.6 | 2301 |
| SSX9P | 0.16 | 5665 |
| TCP11L1 | -2.3 (active) | 3506 |
| MYF5 | 0.34 | 5861 |
| LUC7L | -0.01 | 3932 |
| TRMT112 | -0.14 | 5908 |
| PRSS27 | -0.02 | 5549 |
| RNF220 | 0.55 | 6070 |
| NDE1 | -1.22 | 4862 |
| MED4 | -0.9 | 5248 |
| ZNF614 | 0.56 | 5932 |
| SYCE1 | 0.16 | 6769 |
| MINAR1 | 0.92 | 4492 |
| RGS8 | 0.4 | 5321 |
| GABRR1 | -0.49 | 4569 |
| MPV17 | -1.23 | 5445 |
| SRSF5 | -0.14 | 5618 |
| PDE1C | -0.34 | 6324 |
| TNIK | -0.52 | 3611 |
| UBP1 | -0.82 | 5154 |
| CYP17A1 | 0.42 | 6447 |
| GLRX2 | 1.14 | 7090 |
| CHRDL1 | -0.3 | 5641 |
| WDR93 | 0.76 | 4100 |
| SAP30BP | 0.5 | 6742 |
| CD302 | 0.36 | 6656 |
| FBLIM1 | 0.32 | 6328 |
| SKOR2 | -1.04 | 4551 |
| PRR18 | -0.57 | 5694 |
| TMEM255A | -2.73 (active) | 5991 |
| RIOK1 | 0.8 | 6218 |
| LAMA4 | -3.66 (active) | 3759 |
| PI16 | -0.87 | 6214 |
| RBMY1J | 2.62 (active) | 6321 |
| SGCZ | 0.16 | 6316 |
| OR7A10 | 1.9 | 7096 |
| ANKRD53 | 0.32 | 5078 |
| ERI3 | -0.7 | 6760 |
| OR2D2 | -0.77 | 5616 |
| HOXB1 | -0.76 | 3748 |
| DDX56 | -0.04 | 5614 |
| RPP40 | -1.53 | 5746 |
| CCT7 | -0.23 | 6090 |
| GART | -1.04 | 4915 |
| AP5M1 | 0.56 | 5920 |
| PDXP | 1.04 | 5858 |
| LEFTY1 | -0.04 | 6483 |
| MAP4K3 | 0.57 | 6844 |
| TRIM14 | 0.29 | 4778 |
| FCN1 | -0.32 | 6660 |
| NPC1 | -0.05 | 5742 |
| ELAPOR1 | -0.5 | 5552 |
| EFEMP2 | 1.45 | 4698 |
| A2ML1 | 0.24 | 5554 |
| RNF130 | 0.18 | 4772 |

Reformatted: entries from further up.
{"gene": "AP5M1", "migration robust z-score": 0.56, "nuclei per well, duplicate mean": 5920}
{"gene": "PDXP", "migration robust z-score": 1.04, "nuclei per well, duplicate mean": 5858}
{"gene": "LEFTY1", "migration robust z-score": -0.04, "nuclei per well, duplicate mean": 6483}
{"gene": "MAP4K3", "migration robust z-score": 0.57, "nuclei per well, duplicate mean": 6844}
{"gene": "TRIM14", "migration robust z-score": 0.29, "nuclei per well, duplicate mean": 4778}
{"gene": "FCN1", "migration robust z-score": -0.32, "nuclei per well, duplicate mean": 6660}
{"gene": "NPC1", "migration robust z-score": -0.05, "nuclei per well, duplicate mean": 5742}
